Results reported in patent US12514943B2 (priority 2020, dated 2026).
Some compounds share one wording; it may come from a single statement.

Assay: Effect of limiting decrease in durability of synthetic adhesives, overall determination
Settings: 40° C., 16 hours

O=P([O-])([O-])O.[K+].[K+] [dipotassium hydrogen phosphate]
limiting a decrease in durability of synthetic adhesives (in words): had no action of limiting a decrease in durability

O=P([O-])([O-])[O-].[Na+].[Na+].[Na+] [trisodium phosphate]
limiting a decrease in durability of synthetic adhesives (in words): had no action of limiting a decrease in durability
